From the supplement of paper PMC10849652
Some of the results follow.

Sequences of proteins named here, by UniProt entry; tags and fusion partners are left off. A change or cut given only in a name is not applied to a line headed by its entry.
UniProt P16219: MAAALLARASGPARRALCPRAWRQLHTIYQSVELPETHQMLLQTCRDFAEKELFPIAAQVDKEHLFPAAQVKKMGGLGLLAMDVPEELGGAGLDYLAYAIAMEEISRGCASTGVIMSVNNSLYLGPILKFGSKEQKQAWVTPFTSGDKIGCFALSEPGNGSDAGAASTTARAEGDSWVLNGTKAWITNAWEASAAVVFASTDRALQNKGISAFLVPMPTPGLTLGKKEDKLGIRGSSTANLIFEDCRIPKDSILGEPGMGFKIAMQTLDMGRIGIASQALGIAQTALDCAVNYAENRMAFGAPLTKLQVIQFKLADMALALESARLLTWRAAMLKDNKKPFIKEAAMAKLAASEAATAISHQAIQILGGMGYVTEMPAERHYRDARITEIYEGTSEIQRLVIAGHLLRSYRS
UniProt Q9H568: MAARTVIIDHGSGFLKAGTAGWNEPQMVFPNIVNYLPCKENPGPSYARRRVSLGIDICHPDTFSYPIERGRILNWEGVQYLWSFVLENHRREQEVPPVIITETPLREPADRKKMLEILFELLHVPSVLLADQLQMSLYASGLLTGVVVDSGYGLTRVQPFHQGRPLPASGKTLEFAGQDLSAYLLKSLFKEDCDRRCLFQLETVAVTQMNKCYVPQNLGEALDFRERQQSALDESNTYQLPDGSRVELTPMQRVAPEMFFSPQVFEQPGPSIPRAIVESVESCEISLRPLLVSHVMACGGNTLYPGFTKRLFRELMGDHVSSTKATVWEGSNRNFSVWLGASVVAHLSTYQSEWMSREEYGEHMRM
UniProt Q9BTE6: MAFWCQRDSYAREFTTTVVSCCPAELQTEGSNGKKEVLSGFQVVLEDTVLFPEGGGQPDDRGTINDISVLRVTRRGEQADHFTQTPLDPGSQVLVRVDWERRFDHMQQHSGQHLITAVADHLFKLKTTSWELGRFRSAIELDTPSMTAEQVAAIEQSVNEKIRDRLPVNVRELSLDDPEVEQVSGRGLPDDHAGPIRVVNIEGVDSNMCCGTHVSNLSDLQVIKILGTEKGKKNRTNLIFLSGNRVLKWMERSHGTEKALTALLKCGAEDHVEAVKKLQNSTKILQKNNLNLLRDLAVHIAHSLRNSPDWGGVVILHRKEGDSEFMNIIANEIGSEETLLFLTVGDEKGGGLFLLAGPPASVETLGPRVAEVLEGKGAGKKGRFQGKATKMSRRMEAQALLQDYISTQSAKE
UniProt Q9NPJ3: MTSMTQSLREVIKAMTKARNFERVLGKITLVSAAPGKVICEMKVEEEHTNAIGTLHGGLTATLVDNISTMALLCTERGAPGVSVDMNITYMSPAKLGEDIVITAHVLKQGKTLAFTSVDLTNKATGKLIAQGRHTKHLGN
UniProt P21399: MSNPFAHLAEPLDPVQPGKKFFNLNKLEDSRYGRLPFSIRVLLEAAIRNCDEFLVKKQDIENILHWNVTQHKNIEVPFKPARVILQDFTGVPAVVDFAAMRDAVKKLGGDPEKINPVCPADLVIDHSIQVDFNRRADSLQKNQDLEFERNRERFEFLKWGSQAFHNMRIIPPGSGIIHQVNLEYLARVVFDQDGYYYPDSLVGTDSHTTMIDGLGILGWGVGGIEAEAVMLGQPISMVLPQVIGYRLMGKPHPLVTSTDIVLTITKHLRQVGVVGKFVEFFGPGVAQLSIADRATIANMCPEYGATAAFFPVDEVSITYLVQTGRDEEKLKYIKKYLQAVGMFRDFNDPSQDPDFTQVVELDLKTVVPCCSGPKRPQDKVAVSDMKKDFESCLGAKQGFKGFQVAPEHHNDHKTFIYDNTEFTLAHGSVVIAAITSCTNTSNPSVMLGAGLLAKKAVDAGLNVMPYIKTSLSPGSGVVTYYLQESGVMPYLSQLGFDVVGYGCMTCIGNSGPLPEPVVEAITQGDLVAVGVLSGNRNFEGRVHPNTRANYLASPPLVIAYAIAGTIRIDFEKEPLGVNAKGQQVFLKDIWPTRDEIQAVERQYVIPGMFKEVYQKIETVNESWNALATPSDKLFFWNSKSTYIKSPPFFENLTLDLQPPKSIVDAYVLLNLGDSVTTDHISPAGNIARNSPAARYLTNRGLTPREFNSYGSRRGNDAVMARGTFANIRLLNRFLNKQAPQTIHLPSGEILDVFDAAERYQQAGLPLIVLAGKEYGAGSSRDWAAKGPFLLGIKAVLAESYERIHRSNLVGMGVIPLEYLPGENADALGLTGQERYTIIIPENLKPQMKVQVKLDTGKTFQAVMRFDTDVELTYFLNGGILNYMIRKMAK
UniProt P24666: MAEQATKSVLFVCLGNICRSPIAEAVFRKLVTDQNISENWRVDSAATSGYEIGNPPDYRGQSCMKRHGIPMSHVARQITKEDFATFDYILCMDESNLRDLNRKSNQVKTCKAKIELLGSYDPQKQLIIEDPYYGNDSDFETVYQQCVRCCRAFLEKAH
UniProt Q9Y312: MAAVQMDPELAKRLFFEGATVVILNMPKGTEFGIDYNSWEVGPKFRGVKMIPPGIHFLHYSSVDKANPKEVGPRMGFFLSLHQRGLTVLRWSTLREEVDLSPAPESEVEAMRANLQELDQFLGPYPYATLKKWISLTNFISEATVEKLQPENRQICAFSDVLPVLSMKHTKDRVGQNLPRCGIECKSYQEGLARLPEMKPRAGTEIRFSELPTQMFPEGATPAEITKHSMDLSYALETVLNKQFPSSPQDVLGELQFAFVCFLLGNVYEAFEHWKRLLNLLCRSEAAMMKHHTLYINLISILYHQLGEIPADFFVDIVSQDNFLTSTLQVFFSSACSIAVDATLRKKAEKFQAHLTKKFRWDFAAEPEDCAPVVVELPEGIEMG
UniProt Q13443: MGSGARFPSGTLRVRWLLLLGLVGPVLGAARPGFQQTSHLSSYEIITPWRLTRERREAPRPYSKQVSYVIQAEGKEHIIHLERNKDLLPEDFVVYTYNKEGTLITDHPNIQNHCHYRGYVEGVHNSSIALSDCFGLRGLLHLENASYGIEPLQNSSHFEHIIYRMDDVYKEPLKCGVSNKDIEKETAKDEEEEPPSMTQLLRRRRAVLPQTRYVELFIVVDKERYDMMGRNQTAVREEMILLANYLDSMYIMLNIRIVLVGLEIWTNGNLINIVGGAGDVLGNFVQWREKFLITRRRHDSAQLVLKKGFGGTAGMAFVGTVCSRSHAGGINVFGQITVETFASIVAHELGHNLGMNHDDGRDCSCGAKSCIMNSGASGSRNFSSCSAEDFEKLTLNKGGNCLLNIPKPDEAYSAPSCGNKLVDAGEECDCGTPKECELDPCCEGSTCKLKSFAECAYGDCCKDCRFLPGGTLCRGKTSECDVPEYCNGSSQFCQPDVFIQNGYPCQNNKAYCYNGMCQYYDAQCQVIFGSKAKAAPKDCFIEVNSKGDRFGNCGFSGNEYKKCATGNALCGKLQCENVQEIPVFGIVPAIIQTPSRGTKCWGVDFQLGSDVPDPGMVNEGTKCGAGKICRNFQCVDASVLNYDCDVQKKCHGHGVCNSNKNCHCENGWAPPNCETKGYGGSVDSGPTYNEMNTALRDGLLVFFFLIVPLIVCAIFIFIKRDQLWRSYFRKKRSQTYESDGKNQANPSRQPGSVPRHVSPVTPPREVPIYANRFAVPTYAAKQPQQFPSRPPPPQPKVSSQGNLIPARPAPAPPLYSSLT
UniProt Q9BZC7: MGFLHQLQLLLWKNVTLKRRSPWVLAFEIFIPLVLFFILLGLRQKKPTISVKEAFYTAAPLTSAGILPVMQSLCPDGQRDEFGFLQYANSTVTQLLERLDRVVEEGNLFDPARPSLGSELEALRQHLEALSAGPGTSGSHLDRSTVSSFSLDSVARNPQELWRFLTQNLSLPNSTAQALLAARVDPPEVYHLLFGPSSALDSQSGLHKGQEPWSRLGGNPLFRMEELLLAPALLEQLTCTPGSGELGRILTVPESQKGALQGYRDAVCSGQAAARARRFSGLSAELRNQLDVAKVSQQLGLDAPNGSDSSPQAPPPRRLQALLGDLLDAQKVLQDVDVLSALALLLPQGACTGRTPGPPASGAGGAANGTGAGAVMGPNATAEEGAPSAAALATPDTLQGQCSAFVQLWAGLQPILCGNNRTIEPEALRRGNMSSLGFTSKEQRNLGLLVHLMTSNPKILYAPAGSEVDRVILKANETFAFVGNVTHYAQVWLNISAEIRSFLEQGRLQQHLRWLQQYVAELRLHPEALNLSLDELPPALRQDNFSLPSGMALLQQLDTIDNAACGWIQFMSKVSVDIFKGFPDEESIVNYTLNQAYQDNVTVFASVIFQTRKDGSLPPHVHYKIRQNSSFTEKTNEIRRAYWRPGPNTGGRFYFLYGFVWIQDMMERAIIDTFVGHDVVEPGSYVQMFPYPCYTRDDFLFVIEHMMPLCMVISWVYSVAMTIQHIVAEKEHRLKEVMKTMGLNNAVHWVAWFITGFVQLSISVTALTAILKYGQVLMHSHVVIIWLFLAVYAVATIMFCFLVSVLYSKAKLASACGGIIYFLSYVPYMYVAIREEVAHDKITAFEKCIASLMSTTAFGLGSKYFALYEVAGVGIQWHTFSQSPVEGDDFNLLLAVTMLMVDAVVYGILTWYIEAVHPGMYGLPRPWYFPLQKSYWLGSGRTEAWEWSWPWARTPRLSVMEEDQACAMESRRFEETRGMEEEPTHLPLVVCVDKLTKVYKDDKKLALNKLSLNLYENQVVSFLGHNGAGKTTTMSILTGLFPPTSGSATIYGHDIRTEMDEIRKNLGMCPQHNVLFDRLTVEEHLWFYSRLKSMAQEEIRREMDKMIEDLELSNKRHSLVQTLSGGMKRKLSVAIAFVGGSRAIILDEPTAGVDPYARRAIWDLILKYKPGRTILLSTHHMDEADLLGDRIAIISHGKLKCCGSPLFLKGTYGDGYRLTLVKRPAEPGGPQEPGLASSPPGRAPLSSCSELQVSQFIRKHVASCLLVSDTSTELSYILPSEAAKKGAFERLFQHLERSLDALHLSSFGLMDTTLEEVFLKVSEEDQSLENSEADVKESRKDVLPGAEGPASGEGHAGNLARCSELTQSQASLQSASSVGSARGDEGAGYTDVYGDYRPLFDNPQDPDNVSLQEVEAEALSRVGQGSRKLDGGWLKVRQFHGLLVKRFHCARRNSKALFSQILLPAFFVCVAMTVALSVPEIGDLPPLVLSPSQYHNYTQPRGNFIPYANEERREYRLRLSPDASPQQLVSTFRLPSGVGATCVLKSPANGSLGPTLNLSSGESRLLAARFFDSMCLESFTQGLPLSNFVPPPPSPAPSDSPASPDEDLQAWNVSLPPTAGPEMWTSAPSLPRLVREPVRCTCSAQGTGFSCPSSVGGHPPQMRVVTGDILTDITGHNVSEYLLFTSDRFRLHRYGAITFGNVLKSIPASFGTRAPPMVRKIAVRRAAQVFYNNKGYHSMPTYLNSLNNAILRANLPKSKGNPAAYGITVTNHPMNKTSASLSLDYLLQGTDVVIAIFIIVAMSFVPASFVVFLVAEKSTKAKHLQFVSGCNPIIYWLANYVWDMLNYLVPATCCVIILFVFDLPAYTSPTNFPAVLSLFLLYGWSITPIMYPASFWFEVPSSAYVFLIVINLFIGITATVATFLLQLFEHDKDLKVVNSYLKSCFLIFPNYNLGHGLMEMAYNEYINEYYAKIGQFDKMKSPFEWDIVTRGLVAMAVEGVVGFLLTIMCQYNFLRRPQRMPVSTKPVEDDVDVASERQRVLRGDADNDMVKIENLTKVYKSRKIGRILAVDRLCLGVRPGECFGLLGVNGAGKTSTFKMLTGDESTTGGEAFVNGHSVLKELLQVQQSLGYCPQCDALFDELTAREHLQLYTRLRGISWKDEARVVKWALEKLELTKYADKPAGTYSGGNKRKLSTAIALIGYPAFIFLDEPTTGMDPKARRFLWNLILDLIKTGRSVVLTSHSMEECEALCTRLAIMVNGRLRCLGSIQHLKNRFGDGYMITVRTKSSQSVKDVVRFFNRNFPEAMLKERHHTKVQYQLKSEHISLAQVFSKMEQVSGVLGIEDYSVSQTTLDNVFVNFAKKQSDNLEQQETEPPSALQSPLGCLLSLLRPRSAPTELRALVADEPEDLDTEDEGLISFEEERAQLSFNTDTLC
UniProt Q9BV23: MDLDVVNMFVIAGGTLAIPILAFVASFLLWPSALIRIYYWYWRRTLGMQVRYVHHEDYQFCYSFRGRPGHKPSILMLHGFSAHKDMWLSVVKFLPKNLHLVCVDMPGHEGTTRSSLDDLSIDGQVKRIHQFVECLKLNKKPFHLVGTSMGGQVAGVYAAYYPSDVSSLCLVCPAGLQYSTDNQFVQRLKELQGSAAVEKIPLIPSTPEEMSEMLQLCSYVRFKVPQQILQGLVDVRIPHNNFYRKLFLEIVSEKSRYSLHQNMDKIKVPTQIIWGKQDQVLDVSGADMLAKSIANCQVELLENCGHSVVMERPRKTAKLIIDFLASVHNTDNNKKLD

Legend:
Test in all cases: log2 fold change, soluble protein after heating vs DMSO (PISA); higher = thermal stabilisation; K562 cells, 10 uM, 30 min; active = over 0.2 and 3.5 SD of the protein, either way, in both replicates (recomputed)
[1] = compound: C#Cc1cccc(Nc2ncnc3cc(OCCOC)c(OCCOC)cc23)c1 [erlotinib]
In short: (§1)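 Soluble protein was quantified by TMTpro 16plex LC-MS/MS after channel sums were equalised. It was obtained as the supernatant after 21,000xg for 90 min from pooled aliquots of K562 cells (2×10^6 cells/mL, 10 μM compound, 30 min) heated for 3 min across 48°C-58°C and extracted in PBS with 0.5% NP-40 at 4°C. Thermal stability values are relative to control samples and come from duplicates. They are given as log2 fold changes.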

[2] = compound: C/C(=N\NC(=O)C1=CC(=CC=C1)S(=O)(=O)N2CCOCC2)/C3=C(C=CC(=C3)Cl)O
In short: as §1

[3] = compound: C1=CC(=C(C=C1Cl)C2=NC3=NC=CN=C3C(=N2)NC4=CC=NC=C4)F
In short: as §1

[4] = compound: C1=CC(=CC=C1C2=NC3=C(N2)C=C(C=C3)C(=O)N)OC4=CC=C(C=C4)Cl
In short: as §1

[5] = compound: C1=CC2=C(C=CC(=C2)/C=C\3/C(=O)NC(=NCC4=CC=CS4)S3)N=C1
In short: as §1

[6] = compound: C1=CC2=NC=CN=C2C=C1/C=C/3\C(=O)NC(=O)S3
In short: as §1

[7] = compound: C1=CC=C(C=C1)C2=NC(=C(N2)C3=CC=NC=C3)C4=CC(=C(C=C4)Cl)O
In short: as §1

[8] = compound: C1=CC=C2C(=C1)C3=NNC4=CC=CC(=C43)C2=O
In short: as §1

[9] = compound: C1CCN(C1)C(=O)NC2=CC=CC(=C2)NC3=NC=C(C(=N3)NCCC4=CN=CN4)Br
In short: as §1

[10] = compound: C1CN(CCC1(CC2=CC=C(C=C2)Cl)N)C3=NC=NC4=C3C=CN4
In short: as §1

Measured: log2 fold change

ACADS (UniProt P16219)
inactive: [1] -0.003 | [2] 0.016 | [3] 0.038 | [4] -0.016 | [5] 0.036 | [6] 0.014 | [7] 0.059 | [8] -0.003 | [9] 0.003 | [10] 0.073

ACY1 (UniProt Q03154)
inactive: [1] 0.001 | [2] 0.024 | [3] 0.029 | [4] -0.005 | [5] -0.041 | [6] 0.02 | [7] -0.039 | [8] 0.001 | [9] -0.017 | [10] 0.078

ACTL8 (UniProt Q9H568)
inactive: [1] -0.036 | [2] -0.008 | [3] 0.139 | [4] 0.019 | [5] 0.045 | [6] 0.06 | [7] -0.017 | [8] -0.029 | [9] 0.003 | [10] 0.13

ABCC1 (UniProt P33527)
inactive: [1] 0 | [2] 0.059 | [3] 0.017 | [4] 0.048 | [5] 0.001 | [6] 0.05 | [7] 0.03 | [8] -0.038 | [9] -0.027 | [10] 0.05

ACSL5 isoform 3 (UniProt Q9ULC5)
inactive: [1] 0.044 | [2] 0.039 | [3] -0.021 | [4] 0.028 | [5] -0.029 | [6] -0.011 | [7] -0.007 | [8] 0.047 | [9] -0.003 | [10] 0.061

AARSD1 isoform 3 (UniProt Q9BTE6)
inactive: [1] 0.05 | [3] 0.113 | [4] -0.014 | [5] -0.027 | [6] 0.008 | [7] -0.015 | [8] 0.053 | [9] -0.006 | [10] -0.086
active: [2] -0.736

ADAL (UniProt Q6DHV7)
inactive: [1] 0.018 | [2] -0.048 | [3] 0.033 | [4] 0.049 | [5] -0.007 | [6] 0.05 | [7] 0.018 | [8] 0.013 | [9] -0.004 | [10] 0.061

ACOT13 (UniProt Q9NPJ3)
inactive: [1] -0.017 | [2] 0.004 | [3] -0.013 | [4] 0.009 | [5] -0.007 | [6] 0.002 | [7] 0.086 | [8] 0.026 | [9] -0.01 | [10] 0.067

ACO1 (UniProt P21399)
inactive: [1] 0.023 | [2] 0.011 | [3] 0.083 | [4] -0.011 | [5] -0.028 | [6] -0.099 | [7] 0.047 | [8] 0.005 | [9] 0.024 | [10] 0.044

ACP1 (UniProt P24666)
inactive: [1] 0.149 | [2] 0.06 | [3] 0.035 | [4] -0.066 | [5] 0.224 | [6] -0.059 | [8] 0.109 | [9] -0.001 | [10] -0.015

ACSS1 (UniProt Q9NUB1)
inactive: [1] -0.037 | [2] 0.019 | [4] -0.007 | [5] 0.035 | [6] 0 | [7] -0.231 | [8] -0.029 | [9] 0.122 | [10] -0.054

ACP2 (UniProt P11117)
inactive: [1] 0.031 | [2] 0.004 | [3] 0.061 | [4] 0.019 | [5] 0.019 | [6] -0.01 | [7] 0.022 | [8] -0.022 | [9] -0.003 | [10] 0.045

AAR2 (UniProt Q9Y312)
inactive: [1] 0.075 | [2] 0.089 | [3] -0.113 | [4] 0.057 | [5] 0.103 | [6] 0.049 | [7] -0.003 | [8] -0.137 | [9] -0.008 | [10] 0.043

ADAM15 (UniProt Q13444)
inactive: [1] 0.314 | [2] 0.154 | [3] 0.03 | [4] -0.223 | [5] 0.035 | [6] 0.068 | [7] 0.043 | [8] 0.08 | [9] -0.042 | [10] 0.013

ACTRT1 (UniProt Q8TDG2)
inactive: [1] 0.159 | [2] -0.02 | [3] -0.101 | [4] -0.05 | [5] 0.251 | [6] -0.008 | [8] -0.158

ACTR3 (UniProt P61158)
inactive: [1] 0.002 | [2] 0.026 | [3] 0.018 | [4] -0.041 | [5] -0.054 | [6] -0.002 | [7] 0.011 | [8] -0.005 | [9] -0.035 | [10] 0.005

ADAM9 (UniProt Q13443)
inactive: [1] 0.015 | [2] -0.036 | [3] 0.035 | [4] -0.012 | [5] 0.012 | [6] 0.062 | [7] -0.025 | [8] -0.019 | [9] -0.008 | [10] 0.066

ACTN1 (UniProt H9KV75)
inactive: [1] 0.177 | [2] -0.162 | [3] -0.037 | [4] -0.033 | [5] 0.135 | [6] -0.14 | [8] 0.221 | [9] -0.211 | [10] 0.102

ABCD1 (UniProt P33897)
inactive: [1] 0.053 | [2] 0.068 | [3] -0.178 | [4] -0.034 | [5] 0.071 | [8] 0.01

ACVR1 (UniProt Q04771)
inactive: [1] -0.101 | [2] -0.051 | [3] 0.021 | [4] 0.031 | [5] -0.021 | [8] 0.136 | [9] -0.326 | [10] 0.035

ABCA7 (UniProt Q8IZY2)
inactive: [1] 0.007 | [2] -0.254 | [3] -0.012 | [4] 0.036 | [5] -0.07 | [6] 0.035 | [8] 0.142

AAMP (UniProt Q13685)
inactive: [1] 0.025 | [2] -0.032 | [3] 0.006 | [4] -0.003 | [5] 0.042 | [6] 0.074 | [7] -0.007 | [8] 0.003 | [9] -0.006 | [10] 0.085

ACSF3 (UniProt Q4G176)
inactive: [1] 0.07 | [2] -0.066 | [3] 0.057 | [4] -0.155 | [5] -0.104 | [6] 0.04 | [7] 0.028 | [8] 0.022 | [9] -0.001 | [10] -0.038

ACTN4 (UniProt K7EJH8)
inactive: [1] 0.06 | [2] 0.013 | [3] -0.061 | [4] -0.028 | [5] 0.042 | [6] 0.032 | [7] -0.009 | [8] -0.037 | [9] 0.024 | [10] -0.004

Looked up one by one from the list above, two records:
ACVR1 (UniProt Q04771)
inactive: [1] -0.101 | [2] -0.051 | [3] 0.021 | [4] 0.031 | [5] -0.021 | [8] 0.136 | [9] -0.326 | [10] 0.035

ACSF3 (UniProt Q4G176)
inactive: [1] 0.07 | [2] -0.066 | [3] 0.057 | [4] -0.155 | [5] -0.104 | [6] 0.04 | [7] 0.028 | [8] 0.022 | [9] -0.001 | [10] -0.038

Further results follow:

ABCE1 (UniProt H0Y990)
inactive: [1] -0.047 | [2] -0.06 | [3] 0.304 | [4] -0.167 | [5] -0.014 | [6] -0.043 | [8] 0.037 | [9] 0.054 | [10] 0.034

ACSL3 (UniProt O95573)
active: [4] 0.351
inactive: [1] -0.005 | [2] 0.055 | [3] 0.092 | [5] 0.078 | [6] 0.031 | [7] 0.06 | [8] 0.069 | [9] -0.005 | [10] 0.039

ADCK1 (UniProt Q86TW2)
inactive: [1] -0.042 | [3] -0.033 | [4] 0.062 | [7] -0.008 | [9] 0.047 | [10] 0.011

ABCA2 isoform 3 (UniProt Q9BZC7)
inactive: [6] -0.224 | [7] -0.107

ABHD6 (UniProt Q9BV23)
inactive: [7] 0.069 | [9] -0.25 | [10] -0.22

AACS (UniProt Q86V21)
inactive: [3] -0.176 | [7] -0.037

A2ML1 (UniProt A8K2U0)
inactive: [1] 0.387 | [2] -0.061 | [4] -0.133 | [5] 0.325 | [7] -0.288 | [8] -0.453 | [9] -0.443 | [10] -0.688

ABL2 (UniProt P42684)
inactive: [3] -0.194 | [6] 0.101 | [7] -0.061 | [9] -0.095 | [10] -0.176

ABCB4 (UniProt P21439)
inactive: [1] 0.164 | [2] -0.069 | [4] 0.046 | [5] 0.025 | [7] -0.011 | [8] -0.065 | [9] -0.071 | [10] 0.066
